# Experimental data: PubChem BioAssay AID504444 (National Center for Advancing Translational Sciences (NCATS), 2011)
# The campaign covered roughly 360,000 compounds. About 7,500 (2.1%) were called active. This list was built around the results that the source calls inconclusive (neither active nor inactive); the mix of calls is not that of the screen. Calls follow the shape of the dose curve; as a rule, active = well fitted inhibition curve with a large enough effect; inconclusive = small, poorly fitted or top-dose-only effect, or effect the other way; inactive = flat fitted curve, though single readings scatter. Where the call is inconclusive, the potency comes from a doubtful curve fit.
# Assay: Nrf2 qHTS screen for inhibitors; also: nearly all actives have a fitted effect of over 60% in size
# Settings: A549 ARE-Fluc reporter, luciferase luminescence, 18-24 h; activity change, negative = inhibition: at 46 µM (top of the series)
# Procedure, shortened: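 Two sequential reads on A549 ARE_Fluc cells exposed to compound for 18-24 h: a CellTiter-Fluor fluorescence read for viability, then a luciferase luminescence read for Nrf2/ARE activity.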
# % is scaled to controls: 0 for no effect and ±100 for the full control effect; potency is read from the fitted curve at half-maximal effect.
SMILES,Potency,"activity change, negative = inhibition"
COc1cc(C(=O)Oc2ccccc2/C=N/NC(=O)c2ccc(Cl)cc2Cl)cc(OC)c1OC,"inconclusive: 29.1 µM [falling, single point]",–
COC(=O)C1(C)NC(c2ccccc2F)C2C(=O)N(c3ccccc3)C(=O)C21 (configuration not stated),"inconclusive: 1.64 µM [falling, full curve, poor fit]",–
COc1ccc(C(=O)O/N=C/c2c(C(F)(F)F)nn(C)c2SCc2ccccc2Cl)cc1,"inconclusive: 32.6 µM [falling, single point]",–
CCOc1ccccc1-n1nnnc1SCc1nc2ccccc2s1,"inconclusive: 2.59 µM [activator, full curve, poor fit]",–
O=C(Nc1nnc(Cc2ccc(Cl)cc2)s1)c1cccs1,"inconclusive: 2.91 µM [activator, full curve]",–
COc1cc(C(=O)OCC(=O)NC23CC4CC(CC(C4)C2)C3)cc(OC)c1OC,–,inactive: -7.69%
Cc1cc(NC(=O)c2cc3nc(C4CC4)cc(C(F)(F)F)n3n2)no1,–,inactive: -9.44%
COc1ccc(NC(=O)c2cc3ccccc3oc2=O)c(OC)c1,"inconclusive: 2.59 µM [activator, full curve]",–
Cc1cccc(NC(=O)CS(=O)(=O)c2cn(CC(=O)N3CCOCC3)c3ccccc23)c1,"inconclusive: 25.9 µM [activator, single point]",–
N#C/C(=C\c1ccccc1[N+](=O)[O-])c1nc(C2CC2)cs1,"inconclusive: 7.31 µM [activator, partial curve]",–
COCCNc1oc(-c2ccc(Cl)cc2)nc1C#N,"inconclusive: 1.84 µM [activator, partial curve]",–
O=C(NCc1ccccn1)c1ccc(CS(=O)(=O)Cc2ccc(Cl)cc2)o1,–,inactive: -7.62%
NS(=O)(=O)c1ccc(CNC(=O)/C=C/c2ccc(S(=O)(=O)N3CCOCC3)cc2)cc1,–,inactive: 5.01%
COC(=O)c1cc2oc(C)cc2n1CC(=O)Nc1ccc(OC)c(OC)c1,–,inactive: 10.8%
O=C(Nc1ccc2c(c1)OCCO2)c1ccc(Br)o1,"inconclusive: 1.16 µM [activator, full curve, poor fit]",–
Cc1ccc(S(=O)(=O)n2nc(C)c(Br)c2C)c(C)c1C,"inconclusive: 16.4 µM [falling, partial curve]",–
COc1ccc(Nc2nc(-c3cccs3)cs2)cc1,"inconclusive: 7.31 µM [activator, partial curve]",–
CCN(CCn1cccn1)C(=O)CCc1nnc(CCCc2ccccc2)o1,"inconclusive: 29.1 µM [activator, single point]",–
CCOc1cc2[nH]c(=O)n(CCC(=O)N3CCN(c4ccccc4OC)CC3)c(=O)c2cc1OCC,"inconclusive: 1.84 µM [falling, partial curve]",–
O=C(c1ccc(F)cc1)C1CCN(C(=S)Nc2ccccc2Cl)CC1,"inconclusive: 9.2 µM [falling, partial curve, poor fit]",–
COc1ccc(-n2c(O)c(/C=N/NS(=O)(=O)c3cccc([N+](=O)[O-])c3)c3ccccc3c2=O)cc1OC,"inconclusive: 20.6 µM [falling, partial curve, poor fit]",–

# In the list so far, these contain bromine.
SMILES,Potency,"activity change, negative = inhibition"
O=C(Nc1ccc2c(c1)OCCO2)c1ccc(Br)o1,"inconclusive: 1.16 µM [activator, full curve, poor fit]",–
Cc1ccc(S(=O)(=O)n2nc(C)c(Br)c2C)c(C)c1C,"inconclusive: 16.4 µM [falling, partial curve]",–

# Continued.

SMILES,Potency,"activity change, negative = inhibition"
CCOc1ccc(-n2c(=O)c3c(C)c(C)sc3n(Cc3c(F)cccc3Cl)c2=O)cc1,–,inactive: 4.56%
COc1ccccc1NC(=O)C(=O)NCCCN1CCCC1=O,"inconclusive: 14.6 µM [activator, partial curve, poor fit]",–
Clc1ccc(SCc2cc(N3CCOCC3)nc(-c3ccccn3)n2)cc1,"inconclusive: 16.4 µM [falling, single point]",–
O=C(O)CCn1cc(/C=C/C(=O)c2ccc(Cl)cc2)c(-c2cccc(Br)c2)n1,"inconclusive: 16.4 µM [falling, single point]",–
CN(CC(=O)Nc1ccccc1Cl)C(=O)CSC(=S)N1CCCC1,–,inactive: -7.59%
c1ccc2c(c1)ncn2-c1ccc(-c2ccnc(-c3ccncc3)n2)cc1,"inconclusive: 29.1 µM [falling, single point]",–
CCOc1ccccc1NC(=O)CSc1nc2c(c(=O)n1C)SC(C)C2 (configuration not stated),"inconclusive: 11.6 µM [falling, partial curve]",–
Fc1ccc(-c2nc3cnccn3c2NC2CCCC2)cc1,"inconclusive: 25.9 µM [falling, partial curve, poor fit]",–
CCCC(=O)Nc1nc2c(s1)CC(C(C)(C)C)CC2 (configuration not stated),"inconclusive: 10.3 µM [activator, partial curve, poor fit]",–
Cc1cccc(NC(=O)c2ccc(COc3ccccc3)o2)n1,"inconclusive: 29.1 µM [activator, partial curve, poor fit]",–
COc1ccc(-n2c(=O)c3ccc(C(=O)NCc4ccc(C)cc4)cc3n(Cc3ccc(F)cc3Cl)c2=O)cc1,–,inactive: 46.5%
CC1(C)N=C(c2ccc(F)cc2)C(=O)N1CC(=O)Nc1ccccc1Cl,"inconclusive: 16.4 µM [falling, single point]",–
CN(C)N1C(N)=C(C#N)C(c2ccc3c(c2)OCO3)C2=C1CC(C)(C)CC2=O (configuration not stated),–,inactive: -9.89%
Cc1cc(C)n2ncc(C(=O)N3CCCC3)c2n1,–,inactive: 14.2%
Cc1ccc(Cn2c3ccccc3c3cnn(CC(=O)N4CCCCCC4)c(=O)c32)cc1,–,inactive: 4.74%
COc1ccc(C=C2SC(=S)NC2=O)c(OC)c1OC,"inconclusive: 3.66 µM [falling, partial curve, poor fit]",–
Cc1ccc(-n2nnnc2-c2cnc(N3CCCC3)nc2C(F)(F)F)cc1,"inconclusive: 20.6 µM [falling, single point]",–
Cc1ccc(CN2C(=O)CC(c3ccc(Cl)cc3)c3c(C)nn(-c4nc(C)cc(C)n4)c32)cc1 (configuration not stated),"inconclusive: 16.4 µM [falling, partial curve]",–
CCc1ccc2c(CN(C)Cc3ccc(OC(F)F)c(OC)c3)cc(=O)oc2c1,"inconclusive: 13 µM [activator, partial curve]",–
O=C(Cn1c2ncccc2c(=O)n1-c1ccccc1)Nc1cccc(C(F)(F)F)c1,"inconclusive: 8.2 µM [falling, partial curve, poor fit]",–
CC1(C)CC(=O)c2c(oc3ccc(NS(=O)(=O)c4cccc5cccnc45)cc23)C1,"inconclusive: 16.4 µM [falling, partial curve, poor fit]",–
